Experimental data: paper PMC9112550, “Optimization of the antimicrobial peptide Bac7 by deep mutational scanning” (BMC Biology, 2022)

System: E. coli TOP10
Assay: Deep mutational scanning, epPCR (randomly mutagenized) Bac7_1-23 library, intracellular self-screening with NGS
Assay type: cell-based
Conditions: epPCR library, 601,551 variants; rank 1 = most active; qualitative measure

“RRIGPRPPRLPRSRLRPLPLPRP [epPCR library peptide ID 116736]” was tested, and the “Rank by antimicrobial activity” value was 3.
